Results: patent US10633377B2, “Imidazole and thiazole compositions for modifying biological signaling” (Ohio University, priority 2014, dated 2020)

What was measured:
Type in all cases: cell-based, Murine
Conditions in all cases: ratio of TC50 to IC50
iNOS transcripts = experiment: Inhibition of LPS induction of iNOS transcripts in macrophages (rt-PCR)
Method: (§1) Murine macrophages were treated with LPS in the presence of various exemplary compounds described above. Subsequently, the cells were harvested and the transcripts for IL-6, iNOS, and INF-β quantified via rt-PCR. IC50 is the concentration of the compounds required to inhibit 50% of the mRNA transcripts induced by LPS. TC50 is the concentration of the compounds required to diminish the MTS signal by 50% (MTS signal correlates with cell metabolism/viability). Therapeutic Index (TI) is the ratio of TC50 to IC50.
(§2) In TABLE 4, data are provided that show effects of exemplary compounds described above on the inhibition of LPS induction of IL-6, iNOS, and INF-β transcripts in macrophages. The IL-6, iNOS, and INF-β transcripts are key mediators in a plethora of signaling networks that are involved in normal physiology and pathological processes. The mechanism by which LPS induces the IL-6, iNOS, and INF-β transcripts is via a network of signaling events. […] Data in TABLE 4 that was not calculatable is noted “NC.”

IL-6 transcripts = experiment: Inhibition of LPS induction of IL-6 transcripts in macrophages (rt-PCR)
Method: as §1, §2

INF-β transcripts = experiment: Inhibition of LPS induction of INF-β transcripts in macrophages (rt-PCR)
Method: as §1, §2

| Structure (SMILES) | Average Therapeutic Index (TI) iNOS (iNOS transcripts) | Average Therapeutic Index (TI) IL-6 (IL-6 transcripts) | Average Therapeutic Index (TI) INF-β (INF-β transcripts) |
| --- | --- | --- | --- |
| Cn1c(-c2cccc(Cl)c2)c[nH]c1=S [COB-119] | 6.5 | 8.7 | 8.5 |
| CCn1c(-c2cccc(Cl)c2)c[nH]c1=O [COB-125] | 11.6 | 16.1 | 13.9 |
| COc1ccc(OC)c(-c2c[nH]c(=S)n2C)c1 [COB-132] | 9.5 | 13.8 | 4.2 |
| COc1ccc(OC)c(C2(O)CSC(=S)N2Cc2ccccc2)c1 (stereo not shown) [COB-143] | 7.7 | 1.8 | 23.0 |
| OC1(c2ccccc2)CSC(=S)N1Cc1cccnc1 (stereo not shown) [COB-152] | 115.4 | 4.2 | 115.4 |
| OC1(c2ccccc2)CSC(=S)N1CCCc1ccccc1 (stereo not shown) [COB-168] | 8.0 | 0.7 | 8.0 |
| OC1(c2ccccc2)CSC(=S)N1Cc1nc2ccccc2[nH]1 (stereo not shown) [COB-183] | >5.3 | >2.6 | >6.3 |
| OC1(c2ccccc2)CSC(=S)N1Cc1ccncc1 (stereo not shown) [COB-187] | 40.0 | – | 120.0 |
| OC1(c2ccccc2)CSC(=S)N1Cc1ccc2[nH]ccc2c1 (stereo not shown) [COB-188] | 52.0 | – | 52.0 |
| Oc1cccc(C2(O)CSC(=S)N2Cc2ccccc2)c1 (stereo not shown) [COB-196] | 34.0 | – | 45.3 |
| Oc1cccc(C2(O)CSC(=S)N2Cc2cccnc2)c1 (stereo not shown) [COB-198] | 113.3 | – | 85.0 |
| COc1ccc(C2(O)CSC(=S)N2Cc2cccnc2)c(OC)c1 (stereo not shown) [COB-199] | 10.5 | – | >4.5 |
| Oc1ccc(C2(O)CSC(=S)N2Cc2cccnc2)c(O)c1 (stereo not shown) [COB-200] | 22.0 | – | 27.5 |
| COc1ccc(C2(O)CSC(=S)N2Cc2cccnc2)cc1 (stereo not shown) [COB-201] | 22.2 | – | 8.0 |
| O=c1oc2ccccc2cc1C1(O)CSC(=S)N1Cc1cccnc1 (stereo not shown) [COB-202] | 19.5 | – | 9.8 |
| COc1ccc(OC)c(-c2csc(=S)n2Cc2cccnc2)c1 [COB-203] | – | 13.8 | 33.8 |
| COc1ccc(-c2csc(=S)n2Cc2cccnc2)c(OC)c1 [COB-204] | 18.6 | 26.0 | 9.3 |
| COc1ccc(-c2csc(=S)n2Cc2cccnc2)cc1 [COB-206] | 2.2 | 11.4 | 4.0 |
| CCCN1C(=S)SCC1(O)c1ccc(Cl)c(Cl)c1 (stereo not shown) [COB-210] | 22.5 | 2.8 | 15.0 |
| CCCCCCN1C(=S)SCC1(O)c1ccccc1 (stereo not shown) [COB-212] | 15.9 | – | 15.0 |
| CCCn1c(-c2cccnc2)csc1=S [COB-214] | 22.0 | 38.0 | – |
| CCCn1c(-c2cccc([N+](=O)[O-])c2)csc1=S [COB-215] | ~10 | ~11.5 | ~10 |
| CCCn1c(-c2cc(OC)ccc2OC)csc1=S [COB-220] | 16.0 | 10.9 | 4.9 |
| Oc1ccc(Cl)cc1C1(O)CSC(=S)N1Cc1ccccc1 (stereo not shown) [COB-221] | 10.0 | >1.8 | 12.0 |
| Oc1ccc(Cl)cc1C1(O)CSC(=S)N1Cc1cccnc1 (stereo not shown) [COB-222] | 33.3 | 1.7 | 33.3 |
| Cc1ccc(C)c(C2(O)CSC(=S)N2Cc2cccnc2)c1 (stereo not shown) [COB-223] | 35.0 | 4.0 | 35.0 |
| Cc1ccccc1C1(O)CSC(=S)N1Cc1cccnc1 (stereo not shown) [COB-224] | 32.5 | 3.7 | 28.9 |
| COc1ccc(F)cc1C1(O)CSC(=S)N1Cc1cccnc1 (stereo not shown) [COB-225] | 65.0 | 2.0 | 65.0 |
| OC1(c2cc(C(F)(F)F)ccc2Cl)CSC(=S)N1Cc1cccnc1 (stereo not shown) [COB-226] | 22.0 | 2.6 | 22.0 |
| CCCn1c(-c2ccc(C#N)cc2)csc1=S [COR-216] | ~10 | ~12 | ~10 |
